Among the data in PubChem BioAssay AID248 (DTP/NCI, 2004) are T/C and survivor count values, retold here.

Each structure is given as a SMILES string. The list is a part of this screen's results and no random one: it is rich in T/C values a quarter to a half above the control, in often repeated tests (any T/C) and in doses without a T/C. Other doses and runs of a compound stand elsewhere. T/C: endpoint of the treated group in % of that of the vehicle group. Some entries give survivors of the animals treated and no T/C: the source holds a T/C of zero for them, seemingly a mark for toxic or unscored doses. Some doses without a T/C left all or most animals alive at the check, yet need not have been tolerated: the source hardly ever lists a survival T/C far under the control, and the zero likely stands for such cases as well. Counts of survivors are from the toxicity check (mostly the fifth day) where no day follows; animals may have died later. Schedule codes are those of the source, read here as Q, the interval in days (D) or hours (H), X, the number of doses. Some entries were tested several times; the values are given in rising order. Some schedules carry Z or #; the key to these is not given. For survival time, the PubChem record calls one and a half times the control and up active, and a quarter to a half above the control has no call in these data; cut-offs in other NCI protocols can differ.

The experiment deals with L1210 leukemia ip in BDF1 mice, survival T/C. Description: NCI In Vivo Anticancer Drug Screen. Data for tumor model L1210 Leukemia (intraperitoneal) in B6D2F1 (BDF1) mice. Particulars: T/C endpoint: mean survival time, higher T/C = longer survival.
Where [1] appears, read: dose: 100.0 mg/kg/injection, schedule: Q01DX009 (ip), vehicle: saline with Tween-80.
Setting [2] is: dose: 200.0 mg/kg/injection, schedule: Q01DX009 (ip), vehicle: saline with Tween-80.
Setting [3] is: dose: 200.0 mg/kg/injection, schedule: Q04DX003 (ip), vehicle: saline with Tween-80.
The mark [4] stands for this setting: dose: 400.0 mg/kg/injection, schedule: Q01DX009 (ip), vehicle: saline with Tween-80.
Setting [5] is: dose: 400.0 mg/kg/injection, schedule: Q04DX003 (ip), vehicle: saline with Tween-80.
[6] abbreviates: dose: 400.0 mg/kg/injection, schedule: Q01DX001 (ip), vehicle: carboxymethylcellulose (CMC).
The mark [7] stands for this setting: dose: 400.0 mg/kg/injection, schedule: Q04DX002 (ip), vehicle: saline with Tween-80.
The mark [8] stands for this setting: dose: 400.0 mg/kg/injection, schedule: Q01DX009 (ip), vehicle: saline.
Where [9] appears, read: dose: 400.0 mg/kg/injection, schedule: Q04DX003 (ip), vehicle: acetone.
Where [10] appears, read: dose: 100.0 mg/kg/injection, schedule: Q01DX005 (ip), vehicle: saline.
The mark [11] stands for this setting: dose: 300.0 mg/kg/injection, schedule: Q01DX001 (ip), vehicle: saline.

`CCOC(=O)c1ccc(NC(=O)Nc2cc(OC)ccc2OC)cc1`: the T/C under setting [1] is listed as 88, 91, 92, 93 % of control. Further, the survivor count reads like this: under setting [2], 6 of 6; under setting [3], 6 of 6; under setting [4], 3 of 3 and 6 of 6; under setting [5], 6 of 6.

Regarding `Cc1cc(NCCN(C(C)C)C(C)C)nc(Nc2nc3ccc(Cl)cc3[nH]2)n1`, the survivor count runs as follows: (dose: 25.0 mg/kg/injection, schedule: Q01DX009 (ip), vehicle: saline with Tween-80) 6 of 6; under setting [1], 6 of 6; under setting [2], 1 of 6; under setting [4], 0 of 6.

On to `C#CCOCCC(C(=O)O)C(=O)O`, for which the survivor count (dose: 400.0 mg/kg/injection, schedule: Q01DX009 (ip), vehicle: acetone) was 2 of 6.

Consider `N#[N+]c1nc[nH]c1C(N)=O`, for which the survivor count reads like this: (dose: 2.6 mg/kg/injection, schedule: Q01DX001 (ip), vehicle: steroid suspending solution) 0 of 8; (dose: 3.8 mg/kg/injection, schedule: Q01DX001 (ip), vehicle: steroid suspending solution) 1 of 8; (dose: 5.4 mg/kg/injection, schedule: Q01DX001 (ip), vehicle: steroid suspending solution) 0 of 8; (dose: 5.4 mg/kg/injection, schedule: Q03HX008 (ip), vehicle: steroid suspending solution) 5 of 8; (dose: 7.7 mg/kg/injection, schedule: Q01DX001 (ip), vehicle: steroid suspending solution) 1 of 8; (dose: 11.1 mg/kg/injection, schedule: Q01DX001 (ip), vehicle: steroid suspending solution) 0 of 8. For the same molecule, the survivor count is listed as 0 of 8 (dose: 15.8 mg/kg/injection, schedule: Q01DX001 (ip), vehicle: steroid suspending solution); 0 of 8 (dose: 22.6 mg/kg/injection, schedule: Q01DX001 (ip), vehicle: steroid suspending solution); 1 of 8 (dose: 25.0 mg/kg/injection, schedule: Q01DX001 (ip), vehicle: steroid suspending solution); 0 of 8 (dose: 50.0 mg/kg/injection, schedule: Q01DX001 (ip), vehicle: steroid suspending solution).

For the molecule `Fc1ccc(NC(=S)Nc2cc(Cl)cc(Cl)c2)cc1`, the survivor count was 3 of 6 (dose: 125.0 mg/kg/injection, schedule: Q01DX Z (ip), vehicle: carboxymethylcellulose (CMC)); 3 of 6 (dose: 200.0 mg/kg/injection, schedule: Q01DX Z (ip), vehicle: carboxymethylcellulose (CMC)); 0 of 4 under setting [6].

Consider `CCNC(C)(C)C(=O)c1ccc(Cl)s1`, for which the survivor count under setting [4] is listed as 3 of 6.

As to `CC(=O)OC1C=CCC23C(=O)C=CC(=O)C12C(=O)c1ccccc1C3=O` (configuration not stated), the survivor count is, setting by setting: (dose: 75.0 mg/kg/injection, schedule: Q04DX003 (ip), vehicle: saline) 6 of 6; (dose: 150.0 mg/kg/injection, schedule: Q04DX003 (ip), vehicle: saline) 6 of 6; (dose: 300.0 mg/kg/injection, schedule: Q04DX003 (ip), vehicle: saline) 6 of 6.

With `O=C(NO)c1ccccc1.O=C(NO)c1ccccc1.O=C(NO)c1ccccc1.[Fe]`, the survivor count (dose: 200.0 mg/kg/injection, schedule: Q04DX003 (ip), vehicle: DMSO) is 0 of 6 and the survivor count (dose: 400.0 mg/kg/injection, schedule: Q04DX003 (ip), vehicle: DMSO) was 0 of 6.

Turning to `O=C1OC(=O)C(Cl)=C1Cl`, the survivor count is on record as 2 of 3 (dose: 200.0 mg/kg/injection, schedule: Q04DX002 (ip), vehicle: saline with Tween-80) and 1 of 3 under setting [7].

As to `Cc1[nH]c(C(=O)OCc2ccccc2)c(C)c1C(=O)OCc1ccccc1`, the survivor count (dose: 100.0 mg/kg/injection, schedule: Q01DX001 (ip), vehicle: saline with Tween-80) is on record as 2 of 6.

Turning to `Fc1ccc(Cc2nnc(Cc3ccc(F)cc3)nn2)cc1`, the survivor count (dose: 400.0 mg/kg/injection, schedule: Q04DX002 (ip), vehicle: Klucel (hydroxypropylcellulose) (HPC)) is recorded as 3 of 3.

`C#CCC#Cc1ccccc1`: the survivor count under setting [4] is 2 of 6.

For `[CH3][Sb]1([Cl])[CH2]CC[CH2]1`, the survivor count was 0 of 3 under setting [5] and 0 of 3 (dose: 400.0 mg/kg/injection, schedule: Q04DX003 (ip), vehicle: saline).

Take `CCC(C)(C)C(=O)OCc1ccccc1`: where the note is “dose: 100.0 mg/kg/injection, schedule: Q04DX002 (ip), vehicle: Klucel (hydroxypropylcellulose) (HPC)”, the T/C was 125 % of control.

Regarding `CN(C)CCCN=Cc1ccccc1O.CN(C)CCCN=Cc1ccccc1O.[Ni+2]`, the survivor count (dose: 100.0 mg/kg/injection, schedule: Q04DX003 (ip), vehicle: saline with Tween-80) is 1 of 6; the survivor count under setting [3] is given as 0 of 6; the survivor count under setting [5] was 0 of 6.

For `O=C(O)c1cccc2[nH]c(=O)oc(=O)c12`, the survivor count under setting [4] is given as 6 of 6.

In the case of `CCOC(=O)C1C(=O)C2CCc3c(ccc4ccccc34)N2C1=O` (configuration not stated), for the setting “dose: 400.0 mg/kg/injection, schedule: Q04DX003 (ip), vehicle: Klucel (hydroxypropylcellulose) (HPC)”, the survivor count is given as 2 of 6.

As to `O=c1c2ccccc2sc2c1ccc1c2ccc2c(=O)c3ccccc3sc21`, the survivor count under setting [5] is given as 5 of 6.

As for `Cc1c(-c2ccccc2)cc(O)cc1-c1ccccc1`, under setting [8], the survivor count is reported as 2 of 6.

In the case of `O=C(Nc1cccc(F)c1)Nc1cc(Cl)ccc1Cl`, under “dose: 200.0 mg/kg/injection, schedule: Q01DX009 (ip), vehicle: Klucel (hydroxypropylcellulose) (HPC)”, the survivor count is recorded as 6 of 6.

Turning to `CNC(=S)N/N=C(/C)CCc1c(C)nn(C(=S)NC)c1C`, the survivor count is given as 0 of 4 (dose: 100.0 mg/kg/injection, schedule: Q01DX001 (ip), vehicle: carboxymethylcellulose (CMC)); 0 of 4 (dose: 200.0 mg/kg/injection, schedule: Q01DX001 (ip), vehicle: carboxymethylcellulose (CMC)); 0 of 4 under setting [6].

As to `CCOc1ccc(C(/C(Cl)=N/O)C(Cl)(Cl)Cl)cc1` (configuration not stated), the survivor count was 0 of 6 (dose: 100.0 mg/kg/injection, schedule: Q04DX003 (ip), vehicle: acetone); 0 of 6 (dose: 200.0 mg/kg/injection, schedule: Q04DX003 (ip), vehicle: acetone); 0 of 6 under setting [9].

Take `COCc1nc2c(=S)nc[nH]c2n1N`: the survivor count under setting [6] is reported as 3 of 6.

`CCOP(=O)(OCC)OC(=C(Cl)Cl)C(Cl)(Cl)Cl`: the survivor count under setting [7] is listed as 0 of 3.

With `Cc1ccc(C(=O)NN2C(N)=NC(N)=NC2(C)C)cc1`, the survivor count (dose: 400.0 mg/kg/injection, schedule: Q01DX009 (ip), vehicle: saline sonified) is 0 of 6.

Take `CCN(CC)Cc1cc(N)ccc1O`: under setting [8], the survivor count is 0 of 6.

Consider `CN(C)NCCN1CCN(CCCN2c3ccccc3Sc3ccc(C(F)(F)F)cc32)CC1`, for which the survivor count reads like this: (dose: 50.0 mg/kg/injection, schedule: Q04DX003 (ip), vehicle: saline) 0 of 6; (dose: 100.0 mg/kg/injection, schedule: Q04DX003 (ip), vehicle: saline) 0 of 6.

Turning to `CCOC(=O)C1CCc2ccccc2CC1`, under setting [9], the survivor count is reported as 0 of 6.

`OCC1SC(n2cnc3c(=S)nc[nH]c32)C(O)C1O` (configuration not stated): the T/C under setting [10] was 139 % of control.

Consider `O=C(CCl)Nc1cc(Cl)ccc1N1CCCC1`, for which the survivor count is, setting by setting: (dose: 100.0 mg/kg/injection, schedule: Q01DX009 (ip), vehicle: saline) 5 of 6; (dose: 200.0 mg/kg/injection, schedule: Q01DX009 (ip), vehicle: saline) 0 of 6; under setting [8], 0 of 6.

With `CN(C)c1nc2c(N)ncnc2n1C1OC(CO)C(O)C1O` (configuration not stated), the survivor count was 3 of 6 (dose: 50.0 mg/kg/injection, schedule: Q01DX005 (ip), vehicle: saline); 0 of 6 and 1 of 6 under setting [10]; 0 of 6 (dose: 200.0 mg/kg/injection, schedule: Q01DX005 (ip), vehicle: saline).

As for `CCC[n+]1ccc(C#N)cc1`, the survivor count under setting [11] is 1 of 6.

For the molecule `C/C=C1\CCCCN(Cc2ccccc2)CCC1`, the survivor count under setting [11] is given as 1 of 6.
